Results taken from PubChem BioAssay AID1117319 (Southern Research Institute, 2015).
Hit rate of the full screen: of about 260,000 compounds, about 1,500 (0.58%) were called active.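 Rule for the calls: active = inhibition above a set limit at one or more doses, reproduced on every date tested; inconclusive = results disagree between test dates, or hit never tested in dose response; inactive = the rest.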 The inconclusive results got no clear call from the source.

By UniProt entry, the sequences of proteins in these tests, tags left out. Where a name states a change or a piece, a line headed by the entry shows the natural chain unless it says otherwise.
UniProt P69720: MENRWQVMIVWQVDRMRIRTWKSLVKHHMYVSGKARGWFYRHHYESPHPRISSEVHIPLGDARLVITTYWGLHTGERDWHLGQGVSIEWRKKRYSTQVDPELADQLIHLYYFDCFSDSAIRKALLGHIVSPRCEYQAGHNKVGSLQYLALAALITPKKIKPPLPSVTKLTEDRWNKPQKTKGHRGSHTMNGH
UniProt P69721: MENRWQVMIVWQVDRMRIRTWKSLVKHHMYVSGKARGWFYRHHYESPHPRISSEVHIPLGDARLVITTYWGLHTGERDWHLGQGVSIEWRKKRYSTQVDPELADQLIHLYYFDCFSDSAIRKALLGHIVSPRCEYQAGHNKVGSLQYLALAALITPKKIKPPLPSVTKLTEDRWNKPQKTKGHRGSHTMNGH
UniProt P69722: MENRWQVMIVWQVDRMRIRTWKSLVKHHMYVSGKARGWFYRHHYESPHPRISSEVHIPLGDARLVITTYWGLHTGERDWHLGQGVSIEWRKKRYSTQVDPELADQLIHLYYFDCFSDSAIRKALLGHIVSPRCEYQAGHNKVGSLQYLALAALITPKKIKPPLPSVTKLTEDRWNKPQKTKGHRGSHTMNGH
UniProt P69723: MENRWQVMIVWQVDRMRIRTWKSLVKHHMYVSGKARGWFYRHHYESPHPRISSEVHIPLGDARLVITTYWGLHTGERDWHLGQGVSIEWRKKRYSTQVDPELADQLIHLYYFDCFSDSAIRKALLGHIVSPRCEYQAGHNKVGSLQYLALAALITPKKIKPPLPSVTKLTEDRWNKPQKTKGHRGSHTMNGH
UniProt Q9HC16: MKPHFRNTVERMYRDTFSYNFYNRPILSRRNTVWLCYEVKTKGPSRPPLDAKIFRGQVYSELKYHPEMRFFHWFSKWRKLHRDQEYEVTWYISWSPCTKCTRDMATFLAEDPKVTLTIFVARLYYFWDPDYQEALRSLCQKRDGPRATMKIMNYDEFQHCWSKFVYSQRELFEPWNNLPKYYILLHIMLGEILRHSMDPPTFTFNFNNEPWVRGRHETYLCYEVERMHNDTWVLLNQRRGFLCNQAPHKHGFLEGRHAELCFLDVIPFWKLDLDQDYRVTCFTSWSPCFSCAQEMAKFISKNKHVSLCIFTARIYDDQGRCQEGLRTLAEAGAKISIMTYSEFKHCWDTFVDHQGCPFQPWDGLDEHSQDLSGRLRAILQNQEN

The compounds below were run against Virion infectivity factor (Human immunodeficiency virus type 1 group M subtype B (isolate BH10)) + Virion infectivity factor (Human immunodeficiency virus type 1 group M subtype B (isolate BRU/LAI)) + Virion infectivity factor (Human immunodeficiency virus type 1 group M subtype B (isolate PCV12)) + Virion infectivity factor (Human immunodeficiency virus type 1 group M subtype B (isolate HXB2)) + DNA dC->dU-editing enzyme APOBEC-3G (Homo sapiens) (UniProt P69720+P69721+P69722+P69723+Q9HC16) (assay: inhibitors of Vif binding to APOBEC3G peptide, primary screen, biochemical, TR-FRET, GST-Vif 1-94, biotin-A3G peptide, dose response retest (AID 1117319;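 note: Vif residues 1-94 fused to GST binding biotinylated APOBEC3G peptide 110-148; 0% = full assay without inhibitor and 100% = GST in place of GST-Vif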)). Settings: active compounds read high.

Row | SMILES | inhibition
1 | CCN1CCN(C(=O)Cc2coc3ccc4ccccc4c23)CC1 | inconclusive: 35.4%
2 | Cc1ccc(N2C(=O)/C(=C/c3ccc(CN(CCC#N)S(C)(=O)=O)o3)C(=O)NC2=S)cc1C | inconclusive: 59.6%
3 | CCOC(=O)c1c(-n2c(C)cc(C=C3C(=O)NC(=S)NC3=O)c2C)sc2c1CCCC2 | inconclusive: 41%
4 | O=C1NC(=O)N(Cc2ccc(F)cc2)C(=O)/C1=C\c1ccoc1 | inconclusive: 59.3%
5 | COC(=O)c1ccccc1OP1(=O)COc2ccccc2OC1 | inconclusive: 62.8%
6 | C=CCN1C(=O)NC(=O)/C(=C/C=C/c2ccccc2)C1=O | inconclusive: 56.3%
7 | CN1CCN(c2ccc(N)cc2Cl)CC1 | inconclusive: 40.4%
8 | COc1ccc(/C=C2/C(=O)NC(=O)N(Cc3ccco3)C2=O)cc1 | inconclusive: 52.7%
9 | COc1cccc(C2(C#N)CCN(C)CC2)c1 | inconclusive: 53.2%
10 | Cc1nn(Cc2ccccc2Cl)c(Cl)c1C(=O)O | inconclusive: 35.2%
11 | C=CCn1c(O)c(C(CC)=NCCc2ccccc2)c(=O)[nH]c1=O | inconclusive: 36.1%
12 | COc1ccc(/C=C2/C(=O)NC(=O)N(c3ccccc3)C2=O)cc1CN1C(=O)c2ccccc2C1=O | inconclusive: 39.7%
13 | CSc1ncc(/C=C2/C(=O)NC(=O)N(C3CCCCC3)C2=O)cn1 | inconclusive: 45.1%
14 | O=C1CC(=O)N(Cc2ccccc2)C(=O)N1CCCCCCN1C(=O)CC(=O)N(Cc2ccccc2)C1=O | inconclusive: 54.3%
15 | C=CCN1C(=O)C2(C(C(=O)OCC)=C(N)Oc3ccccc32)c2c1c1ccccc1oc2=O (centres undefined) | inconclusive: 53%
16 | O=C(O)CCCc1ccc(N(CCCl)CCCl)cc1 | inconclusive: 37.4%
17 | CCn1c(O)c(N=Nc2ccc(S(=O)(=O)N3CCOCC3)cc2)c(=O)n(CC)c1=S | inconclusive: 35.3%
18 | CCOC(=O)C1CCN(/C=C2/C(=O)NC(=O)N(Cc3ccco3)C2=O)CC1 | inconclusive: 44.1%
19 | CN1C(=O)NC(=O)/C(=C/c2ccc([N+](=O)[O-])s2)C1=O | inconclusive: 50.9%
20 | CC1COC2N=C(N[N+](=O)[O-])NC2O1 (centres undefined) | inconclusive: 56.6%
21 | CCOC(=O)C1=C(C)OC(N)=C(C(=O)OCC)C12C(=O)Nc1ccc(Br)cc12 (centres undefined) | inconclusive: 34.1%
22 | Cc1ccc(-n2c(/C=C/c3ccc4c(c3)OCO4)nc3ccccc3c2=O)cc1 | inconclusive: 61.7%
23 | Nc1c(C(=O)NCCN2CCOCC2)c2nc3ccccc3nc2n1Cc1ccco1 | inconclusive: 60.5%

Row | SMILES | inhibition
24 | CCCCN1C(=O)/C(=C/c2ccc(N(C)C)cc2)C(=O)N(Cc2ccco2)C1=O | inconclusive: 55.1%
25 | O=C1NC(=O)N(c2cccc(F)c2)C(=O)/C1=C/c1ccc(N2CCOCC2)cc1 | inconclusive: 48.3%
26 | O=C(O)c1cccc2c1NC(c1cccc([N+](=O)[O-])c1)C1CC(Sc3ccccc3[N+](=O)[O-])C(Cl)C21 (centres undefined) | inconclusive: 47.2%
27 | N#Cc1c(/N=C/c2c(O)n(Cc3ccco3)c(=O)[nH]c2=O)sc2c1CCCC2 | inconclusive: 47.6%
28 | CC(C)[C@@H]1NC(=O)c2cc([N+](=O)[O-])cc(I)c2NCCC[C@@H](C(=O)NC(CC(=O)O)C(N)=O)NC(=O)[C@H](CO)NC1=O (some centres undefined) | inconclusive: 36.9%
29 | CC(=O)C1C2c3ccccc3O[C@@]1(C)N=c1s/c(=C/c3ccoc3)c(=O)n12 (some centres undefined) | inconclusive: 41.7%
30 | CCCc1[nH]nc2c1C1(C(=O)N(Cc3ccccc3)c3ccccc31)C(C(=O)OC)=C(N)O2 (centres undefined) | inconclusive: 35.9%
31 | C=CCN1C(=O)/C(=C/c2cc(C)n(-c3cccnc3)c2C)C(=O)NC1=S | inconclusive: 37.8%
32 | C=CCn1c(O)c(C(C)=Nc2cccc(C(F)(F)F)c2)c(=O)[nH]c1=O | inconclusive: 45.1%
33 | Cc1c(C(=O)O)cccc1-n1c(C)cc(/C=C2\C(=O)NC(=O)N(c3ccc4c(c3)OCO4)C2=O)c1C | inconclusive: 60.8%
34 | Nc1c(C(=O)NCC2CCCO2)c2nc3ccccc3nc2n1Cc1ccco1 (centres undefined) | inconclusive: 48.5%
35 | CC1CCCC(NC(=O)COC(=O)Cc2ccccc2)C1C (centres undefined) | inconclusive: 36.6%
36 | O=C1NC(=O)C(=Cc2ccc(-c3cc(Cl)ccc3[N+](=O)[O-])o2)C(=O)N1 | inconclusive: 39.5%
37 | CO[C@H]1[C@@H](OC)CC(OC2OC(CO)C(O)C(O)C2O)/C(=C\C#N)[C@@H]1O (some centres undefined) | inconclusive: 40%
38 | O=C(CN1CCCC1)Nc1ccc(Cl)cc1C(=O)c1ccccc1 | inconclusive: 62.2%
39 | O=C(N/N=C/c1c(O)n(Cc2ccc(F)cc2)c(=O)[nH]c1=O)c1ccccc1O | inconclusive: 54.7%
40 | COc1ccc(OC)c(-n2c(O)c(C=Nc3c(C)n(C)n(-c4ccccc4)c3=O)c(=O)[nH]c2=O)c1 | inconclusive: 35.3%
41 | CC(C)[C@@H]1NC(=O)c2cc([N+](=O)[O-])cc(I)c2NCCCC[C@@H](C(=O)NC(CC(=O)O)C(N)=O)NC(=O)[C@H](CO)NC1=O (some centres undefined) | inconclusive: 51.3%
42 | Cc1nn(Cc2ccccc2Cl)c(C)c1C(=O)OCC(=O)NC1CCS(=O)(=O)C1 (centres undefined) | inconclusive: 41.7%
43 | O=C1CN=C(c2ccccc2F)c2cc(Cl)ccc2N1 | inconclusive: 44.1%
44 | CN(C)C(=O)Oc1ccc(OC(=O)N(C)C)cc1 | inconclusive: 62.7%
45 | Cc1cccc(N2CCc3c2nc2ccccc2c3N)c1 | inconclusive: 44.6%
46 | COc1ccc2[nH]c(C)c(CCN3CCC(=O)C(C)C3C)c2c1 (centres undefined) | inconclusive: 59.3%

From no. 38 to 42, copied from above:
Row | SMILES | inhibition
38 | O=C(CN1CCCC1)Nc1ccc(Cl)cc1C(=O)c1ccccc1 | inconclusive: 62.2%
39 | O=C(N/N=C/c1c(O)n(Cc2ccc(F)cc2)c(=O)[nH]c1=O)c1ccccc1O | inconclusive: 54.7%
40 | COc1ccc(OC)c(-n2c(O)c(C=Nc3c(C)n(C)n(-c4ccccc4)c3=O)c(=O)[nH]c2=O)c1 | inconclusive: 35.3%
41 | CC(C)[C@@H]1NC(=O)c2cc([N+](=O)[O-])cc(I)c2NCCCC[C@@H](C(=O)NC(CC(=O)O)C(N)=O)NC(=O)[C@H](CO)NC1=O (some centres undefined) | inconclusive: 51.3%
42 | Cc1nn(Cc2ccccc2Cl)c(C)c1C(=O)OCC(=O)NC1CCS(=O)(=O)C1 (centres undefined) | inconclusive: 41.7%

Remaining list, next part.

Row | SMILES | inhibition
47 | COc1ccc(CN2C(=O)NC(=O)/C(=C\c3ccco3)C2=O)cc1 | inconclusive: 64.1%
48 | COCCCN1Cc2ccccc2C1=N | inconclusive: 50.5%
49 | Fc1ccccc1N1CCN(Cc2ccc3c(c2)OCO3)CC1 | inconclusive: 54.8%
50 | COc1ccc(O)c(CN2CCCC(C(=O)c3ccccc3SC)C2)c1 (centres undefined) | inconclusive: 40%
51 | O=C1NC(=O)C(CCc2ccncc2)(Cc2cccc(Cl)c2Cl)C(=O)N1c1ccc(Br)cc1 (centres undefined) | inconclusive: 55.5%
52 | N#C/C(=C(/O)c1ccc(S(=O)(=O)N(CCCl)CCCl)cc1)c1nc2ccccc2[nH]1 | inconclusive: 51.8%
53 | Nc1ccc(N=Nc2ccccc2)cc1 | inconclusive: 44.3%
54 | CN1CCc2nc3sc(C(=O)NC4CC4)c(N)c3cc2C1 | inconclusive: 36.5%
55 | O=C(N/N=C/c1c(O)n(C2CC2)c(=S)[nH]c1=O)c1ccccc1O | inconclusive: 34.9%
56 | O=C(c1ccc2c(c1)ncn2C1CCCCC1)N1CCC2(CC1)OCCO2 | inconclusive: 53.6%
57 | Cc1ccc(Cn2c(C)c3cnn(CC(=O)N4CCC5(CC4)OCCO5)c(=O)c3c2C)cc1 | inconclusive: 41.5%
58 | C=CCc1cc(C=C2C(=O)NC(=O)NC2=O)cc(OC)c1OCc1ccc(C(=O)O)cc1 | inconclusive: 38.4%
59 | CCc1sc(C(=O)N2CCC3(CC2)OCCO3)cc1Br | inconclusive: 36.5%
60 | O=c1[nH]c(=S)[nH]c(O)c1N=Nc1cc2c(cc1[N+](=O)[O-])OCO2 | inconclusive: 58.5%
61 | O=[N+]([O-])c1ccc(N2CCCC2)cc1N/N=C1\CN2CCC1CC2 | inconclusive: 40.9%
62 | COc1cccc(OC)c1C(=O)Nc1nc(N)n(-c2ccccc2)n1 | inconclusive: 35.8%
63 | COc1ccc(C2C(C#N)=C(N)Oc3c2c(=O)oc2ccccc32)cc1Cn1cc([N+](=O)[O-])cn1 (centres undefined) | inconclusive: 36%
64 | CCN1CCN(c2nc3c(c(=O)[nH]2)CCC3)CC1 | inconclusive: 59.6%
65 | CCC(=Nc1cc(OC)ccc1OC)c1c(O)[nH]c(=O)[nH]c1=O | inconclusive: 53.8%
66 | COc1cccc(O)c1CN1CCCC(C(=O)c2ccccc2SC)C1 (centres undefined) | inconclusive: 50.4%
67 | C/C(CC(c1ccccc1)c1c(O)c2ccccc2oc1=O)=N\Nc1ccc([N+](=O)[O-])cc1[N+](=O)[O-] (centres undefined) | inconclusive: 33.5%
68 | OCCN(CC#CC(O)(c1ccccc1)C1CCCC1)CCO (centres undefined) | inconclusive: 61.3%
69 | C/C(=N\Nc1ccccc1)c1c(O)n(Cc2ccccc2)c(=O)[nH]c1=O | inconclusive: 43.2%

Row | SMILES | inhibition
70 | NS(=O)(=O)c1ccc(N2CCNCC2)cc1 | inconclusive: 35%
71 | C=CCn1c(=O)c(C=Nc2cccnc2Cl)c(O)n(CCCC)c1=O | inconclusive: 39.4%
72 | C=CCN1C(=O)NC(=O)/C(=C/c2ccoc2)C1=O | inconclusive: 50.4%
73 | CNCCc1c[nH]c2ccccc12 | inconclusive: 36.7%
74 | C#C[C@]1(O)CC[C@H]2[C@@H]3CCC4=CC(=O)CC[C@]4(C)[C@H]3CC[C@@]21C | inconclusive: 37.1%
75 | CCc1ccccc1N1C(=O)/C(=C/c2ccc(N3CCN(C)CC3)o2)C(=O)NC1=S | inconclusive: 41.9%
76 | COc1ccc(N2C(=O)/C(=C/c3cccs3)C(=O)NC2=S)cc1 | inconclusive: 40.5%
77 | O=C(Nc1ccc(C(F)(F)F)cc1)OC1CN2CCC1CC2 (centres undefined) | inconclusive: 53.4%
78 | CC(/C=N/NC(=O)c1n[nH]c2c1CCC2)=C\c1ccccc1 | inconclusive: 55%
79 | CNC(=O)OCc1n(C)cc[n+]1C | inconclusive: 33.6%
80 | COc1ccc(OC)c(N2C(=O)NC(=O)/C(=C/c3ccc([N+](=O)[O-])s3)C2=O)c1 | inconclusive: 60.7%
81 | O=[N+]([O-])c1ccc(N2CCNCC2)cc1Sc1ccccn1 | inconclusive: 40.9%
82 | CC1(C)CN=C(Nc2ccc(F)c(F)c2)S1 | inconclusive: 34.9%
83 | O=c1[nH]c(CN2CC=C(c3ccccc3)CC2)nc2scc(-c3ccccc3)c12 | inconclusive: 43.2%
84 | COc1ccc(-c2nc(CS(=O)CC(=O)N3CCC4(CC3)OCCO4)c(C)o2)cc1 (centres undefined) | inconclusive: 37.6%
85 | CC(Cc1ccc(O)cc1)NCC(O)c1cc(O)cc(O)c1 (centres undefined) | inconclusive: 45.9%
86 | COc1ccc2nc(/N=C/c3c(O)n(-c4cccc(Cl)c4)c(=O)[nH]c3=O)sc2c1 | inconclusive: 55.7%
87 | Fc1ccc2c(c1)nnn2C1CCN(Cc2ccccc2)CC1 | inconclusive: 35.1%
88 | C/C1=C\[C@@H](C)C/C=C/[C@H]2[C@@H]3O[C@]3(C)[C@@H](C)[C@H]3[C@H](Cc4c[nH]c5ccccc45)NC(=O)[C@]32C(=O)/C=C/C(=O)[C@@H]1O | inconclusive: 60.1%
89 | C/C(=N\NP(=S)(c1ccccc1)c1ccccc1)c1ccc(O)cc1O | inconclusive: 41.5%
